# Values of other authors as cited in patent US6761903B2, “Clear oil-containing pharmaceutical compositions containing a therapeutic agent” (Lipocine, Inc., priority 1999, dated 2004).
# Some entries share one result that the patent states for a list of compounds. For at least one compound, name, drawing or mass did not settle the structure.
# Settings: as reported by the manufacturer of the commercial product, rough average or inventors' judgment
row,SMILES,HLB
1,CC(C)CCC[C@@H](C)[C@H]1CC[C@H]2[C@@H]3CC=C4C[C@@H](O)CC[C@]4(C)[C@H]3CC[C@]12C [Cholesterol],<10
2,CC[C@H](CC[C@@H](C)[C@H]1CC[C@H]2[C@@H]3CC=C4C[C@@H](O)CC[C@]4(C)[C@H]3CC[C@]12C)C(C)C [sitosterol],<10
